Experimental data reported in publication PMC5930937.
These are yes or no findings as the source states them, for the method shown. Binding seen in cells or lysates may run through a third protein. These calls come from enrichment with a bait or labelling near it, and not all partners need be listed. For some of these results: A no says only that the protein was not detected with the bait.

Chains of the proteins cited; added tags and fusions are not shown.
UniProt Q62261: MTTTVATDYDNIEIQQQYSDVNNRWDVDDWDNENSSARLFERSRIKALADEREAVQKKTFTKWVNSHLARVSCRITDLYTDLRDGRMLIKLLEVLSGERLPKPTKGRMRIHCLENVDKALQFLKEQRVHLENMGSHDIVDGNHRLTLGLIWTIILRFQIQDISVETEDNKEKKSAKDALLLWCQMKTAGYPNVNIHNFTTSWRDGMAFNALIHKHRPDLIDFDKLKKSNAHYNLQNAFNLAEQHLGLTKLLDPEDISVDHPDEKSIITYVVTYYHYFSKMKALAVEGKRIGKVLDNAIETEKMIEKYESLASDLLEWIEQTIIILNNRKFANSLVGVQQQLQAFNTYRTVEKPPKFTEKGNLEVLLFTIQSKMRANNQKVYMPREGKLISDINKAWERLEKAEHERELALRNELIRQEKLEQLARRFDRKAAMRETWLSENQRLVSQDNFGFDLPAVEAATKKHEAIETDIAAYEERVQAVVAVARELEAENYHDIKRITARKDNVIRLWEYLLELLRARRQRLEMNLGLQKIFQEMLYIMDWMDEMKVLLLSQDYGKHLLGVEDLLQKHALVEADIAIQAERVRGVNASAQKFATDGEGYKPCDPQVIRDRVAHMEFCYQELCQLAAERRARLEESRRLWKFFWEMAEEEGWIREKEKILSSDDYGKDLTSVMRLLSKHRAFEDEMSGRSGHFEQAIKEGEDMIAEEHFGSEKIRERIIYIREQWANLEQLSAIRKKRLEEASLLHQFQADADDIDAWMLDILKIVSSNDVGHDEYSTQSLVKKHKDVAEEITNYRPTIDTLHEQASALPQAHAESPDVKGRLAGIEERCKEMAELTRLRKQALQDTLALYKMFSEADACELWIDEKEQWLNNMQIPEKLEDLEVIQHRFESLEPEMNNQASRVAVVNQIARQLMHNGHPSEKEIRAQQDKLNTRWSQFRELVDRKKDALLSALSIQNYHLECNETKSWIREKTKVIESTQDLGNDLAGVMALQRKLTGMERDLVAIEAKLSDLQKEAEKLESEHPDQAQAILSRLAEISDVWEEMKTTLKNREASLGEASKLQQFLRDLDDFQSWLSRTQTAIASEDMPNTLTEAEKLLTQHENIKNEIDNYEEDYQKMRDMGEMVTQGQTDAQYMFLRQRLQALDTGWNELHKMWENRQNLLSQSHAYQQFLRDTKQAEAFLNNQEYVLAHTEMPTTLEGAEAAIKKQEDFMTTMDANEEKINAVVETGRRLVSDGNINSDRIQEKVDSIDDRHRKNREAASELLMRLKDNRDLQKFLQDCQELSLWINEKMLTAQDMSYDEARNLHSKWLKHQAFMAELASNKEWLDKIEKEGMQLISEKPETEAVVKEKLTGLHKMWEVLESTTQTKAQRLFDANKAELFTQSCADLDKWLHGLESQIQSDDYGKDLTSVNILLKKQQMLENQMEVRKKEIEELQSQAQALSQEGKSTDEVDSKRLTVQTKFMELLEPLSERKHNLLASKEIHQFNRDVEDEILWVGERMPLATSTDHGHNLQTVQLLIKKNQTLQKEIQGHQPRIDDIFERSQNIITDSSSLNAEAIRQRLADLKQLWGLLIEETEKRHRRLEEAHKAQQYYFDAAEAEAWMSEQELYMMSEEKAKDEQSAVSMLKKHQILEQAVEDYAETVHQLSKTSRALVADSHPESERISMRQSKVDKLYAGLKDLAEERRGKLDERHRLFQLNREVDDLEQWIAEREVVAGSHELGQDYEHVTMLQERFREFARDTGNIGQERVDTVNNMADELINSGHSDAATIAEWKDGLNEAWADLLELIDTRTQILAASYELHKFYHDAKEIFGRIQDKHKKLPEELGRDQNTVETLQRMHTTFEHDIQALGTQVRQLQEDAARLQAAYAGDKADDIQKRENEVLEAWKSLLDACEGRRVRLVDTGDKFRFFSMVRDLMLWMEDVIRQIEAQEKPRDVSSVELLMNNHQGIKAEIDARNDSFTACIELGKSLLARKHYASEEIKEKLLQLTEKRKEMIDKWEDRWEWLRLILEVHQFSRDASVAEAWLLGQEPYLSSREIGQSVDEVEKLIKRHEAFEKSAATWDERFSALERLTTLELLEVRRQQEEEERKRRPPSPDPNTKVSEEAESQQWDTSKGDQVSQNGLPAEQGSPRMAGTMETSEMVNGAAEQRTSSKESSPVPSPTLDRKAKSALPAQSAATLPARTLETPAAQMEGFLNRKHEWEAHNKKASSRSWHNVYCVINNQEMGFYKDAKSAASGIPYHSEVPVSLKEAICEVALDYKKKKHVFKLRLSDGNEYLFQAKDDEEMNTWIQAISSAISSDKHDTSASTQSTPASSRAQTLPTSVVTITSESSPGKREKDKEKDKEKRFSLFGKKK

Columns and labels:
[1] = target: T1, biotin-Cav3.2-CT scramble peptide; test: affinity purification with mass spectrometry; biotinylated peptide (5 μg) as bait with mouse brain lysate (500 μg, precleared with neutravidin beads), 2 h at 4 °C, 50 mM Tris pH 7.6, 150 mM NaCl, 0.2% Triton X-100, 0.2% NP40, 10 mM EDTA, 10 mM EGTA; SDS-PAGE, Coomassie, bands excised, MALDI/TOF-MS; only the target purified
T1 sequence (peptide, covalently linked to a C-terminal biotin): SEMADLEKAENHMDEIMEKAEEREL

[2] = target: T2, Human biotin-Cav3.2-CT 1860–1884 peptide (human); test: as above
T2 sequence (peptide, covalently linked to a C-terminal biotin): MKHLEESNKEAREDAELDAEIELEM

Substance	binding [1]	binding [2]
spectrin-αII (SPTAN1), mouse brain (from UniProt P16546 1-2472)	no binding (tested: 5 μg peptide)	binds
spectrin-β (SPTBN1), mouse brain (from UniProt Q62261 1-2363)	no binding (tested: 5 μg peptide)	binds
